According to publication PMC7954791, “MAGIs regulate aPKC to enable balanced distribution of intercellular tension for epithelial sheet homeostasis” (Communications Biology, 2021):
These are yes or no findings as the source states them, for the method shown. In cells and extracts the contact can be indirect. Some entries that bind do so weakly or less than the wild type.

Amino acid sequences for entries named in this document (tags omitted).
UniProt Q9QZQ1: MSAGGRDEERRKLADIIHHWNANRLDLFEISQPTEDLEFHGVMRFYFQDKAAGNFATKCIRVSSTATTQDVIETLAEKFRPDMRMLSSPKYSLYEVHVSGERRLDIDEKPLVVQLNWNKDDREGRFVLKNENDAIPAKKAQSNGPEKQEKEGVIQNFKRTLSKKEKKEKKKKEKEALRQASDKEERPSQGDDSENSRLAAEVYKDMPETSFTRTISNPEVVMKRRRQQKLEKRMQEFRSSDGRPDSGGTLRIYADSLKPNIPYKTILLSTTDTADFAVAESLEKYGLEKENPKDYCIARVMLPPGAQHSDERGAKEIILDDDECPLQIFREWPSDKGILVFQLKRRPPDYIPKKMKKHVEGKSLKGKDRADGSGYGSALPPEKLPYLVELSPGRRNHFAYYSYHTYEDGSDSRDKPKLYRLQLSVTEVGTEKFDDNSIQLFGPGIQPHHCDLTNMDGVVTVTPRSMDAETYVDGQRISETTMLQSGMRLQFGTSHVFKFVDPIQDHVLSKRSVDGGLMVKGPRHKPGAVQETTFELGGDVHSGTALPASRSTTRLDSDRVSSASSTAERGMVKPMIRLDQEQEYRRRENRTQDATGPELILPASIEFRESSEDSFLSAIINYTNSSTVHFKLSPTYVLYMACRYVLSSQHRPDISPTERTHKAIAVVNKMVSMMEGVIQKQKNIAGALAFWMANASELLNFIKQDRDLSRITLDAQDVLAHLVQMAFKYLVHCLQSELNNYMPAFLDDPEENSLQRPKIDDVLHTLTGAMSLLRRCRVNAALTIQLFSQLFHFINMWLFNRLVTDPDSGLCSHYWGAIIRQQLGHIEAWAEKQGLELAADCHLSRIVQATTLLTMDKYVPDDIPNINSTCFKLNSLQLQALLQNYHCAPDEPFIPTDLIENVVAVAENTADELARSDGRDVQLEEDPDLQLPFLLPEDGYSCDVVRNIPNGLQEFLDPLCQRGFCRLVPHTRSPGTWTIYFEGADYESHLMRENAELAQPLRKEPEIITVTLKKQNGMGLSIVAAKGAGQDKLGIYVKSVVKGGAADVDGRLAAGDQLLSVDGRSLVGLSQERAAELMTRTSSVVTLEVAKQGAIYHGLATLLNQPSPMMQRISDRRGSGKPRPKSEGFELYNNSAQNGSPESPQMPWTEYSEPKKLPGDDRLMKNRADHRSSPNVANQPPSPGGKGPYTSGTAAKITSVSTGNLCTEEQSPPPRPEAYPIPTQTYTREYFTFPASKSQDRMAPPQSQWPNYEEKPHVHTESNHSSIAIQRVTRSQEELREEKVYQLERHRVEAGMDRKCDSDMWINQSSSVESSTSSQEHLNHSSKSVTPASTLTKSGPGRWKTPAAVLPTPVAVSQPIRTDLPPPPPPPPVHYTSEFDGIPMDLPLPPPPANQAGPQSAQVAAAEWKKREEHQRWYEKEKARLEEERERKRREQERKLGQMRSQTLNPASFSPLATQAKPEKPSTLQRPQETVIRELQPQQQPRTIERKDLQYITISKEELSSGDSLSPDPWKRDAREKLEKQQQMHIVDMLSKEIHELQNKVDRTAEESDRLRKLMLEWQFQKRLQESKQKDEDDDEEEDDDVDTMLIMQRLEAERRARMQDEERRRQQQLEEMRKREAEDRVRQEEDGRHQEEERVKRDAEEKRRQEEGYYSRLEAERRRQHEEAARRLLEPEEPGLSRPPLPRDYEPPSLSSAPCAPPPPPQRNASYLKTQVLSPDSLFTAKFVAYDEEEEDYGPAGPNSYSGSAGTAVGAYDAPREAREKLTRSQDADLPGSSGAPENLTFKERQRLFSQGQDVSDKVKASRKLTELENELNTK
UniProt Q6RHR9: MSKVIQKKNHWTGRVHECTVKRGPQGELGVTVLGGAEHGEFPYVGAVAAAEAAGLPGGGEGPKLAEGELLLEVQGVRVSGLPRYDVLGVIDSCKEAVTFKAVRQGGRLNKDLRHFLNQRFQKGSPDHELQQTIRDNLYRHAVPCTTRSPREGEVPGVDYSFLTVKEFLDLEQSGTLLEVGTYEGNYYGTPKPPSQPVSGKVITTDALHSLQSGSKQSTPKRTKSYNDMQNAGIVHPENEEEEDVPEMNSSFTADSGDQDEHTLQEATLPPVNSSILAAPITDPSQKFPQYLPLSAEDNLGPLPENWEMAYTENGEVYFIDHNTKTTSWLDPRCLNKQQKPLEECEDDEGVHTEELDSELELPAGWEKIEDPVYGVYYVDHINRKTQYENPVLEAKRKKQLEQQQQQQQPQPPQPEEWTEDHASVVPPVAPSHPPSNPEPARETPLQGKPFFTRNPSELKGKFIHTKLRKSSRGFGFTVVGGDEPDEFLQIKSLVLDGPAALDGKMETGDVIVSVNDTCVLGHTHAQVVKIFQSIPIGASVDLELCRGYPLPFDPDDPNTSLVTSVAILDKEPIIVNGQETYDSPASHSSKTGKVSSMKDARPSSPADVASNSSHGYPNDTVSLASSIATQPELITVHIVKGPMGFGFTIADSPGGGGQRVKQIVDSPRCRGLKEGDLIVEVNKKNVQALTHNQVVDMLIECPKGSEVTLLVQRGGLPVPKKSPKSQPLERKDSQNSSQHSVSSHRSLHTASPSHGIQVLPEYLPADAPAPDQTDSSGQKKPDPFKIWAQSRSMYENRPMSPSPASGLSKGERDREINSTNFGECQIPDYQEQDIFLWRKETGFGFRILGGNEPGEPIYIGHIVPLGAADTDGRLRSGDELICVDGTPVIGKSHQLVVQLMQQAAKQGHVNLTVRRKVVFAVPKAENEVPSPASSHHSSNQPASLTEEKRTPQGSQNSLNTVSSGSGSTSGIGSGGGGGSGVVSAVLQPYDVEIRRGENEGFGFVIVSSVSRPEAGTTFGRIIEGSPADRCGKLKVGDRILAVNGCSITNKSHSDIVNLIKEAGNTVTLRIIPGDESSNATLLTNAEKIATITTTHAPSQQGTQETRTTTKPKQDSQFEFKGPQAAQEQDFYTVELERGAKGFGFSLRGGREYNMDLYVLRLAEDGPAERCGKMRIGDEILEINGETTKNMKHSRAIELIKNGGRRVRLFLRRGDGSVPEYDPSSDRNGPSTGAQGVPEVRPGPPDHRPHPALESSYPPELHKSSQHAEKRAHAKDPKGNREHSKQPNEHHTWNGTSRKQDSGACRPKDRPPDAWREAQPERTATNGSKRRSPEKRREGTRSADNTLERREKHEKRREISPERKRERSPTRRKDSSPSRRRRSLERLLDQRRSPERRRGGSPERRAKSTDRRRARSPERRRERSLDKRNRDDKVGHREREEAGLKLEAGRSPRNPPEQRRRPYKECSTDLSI

T1: ZO-2 (UniProt Q9Z0U1)
T1 sequence: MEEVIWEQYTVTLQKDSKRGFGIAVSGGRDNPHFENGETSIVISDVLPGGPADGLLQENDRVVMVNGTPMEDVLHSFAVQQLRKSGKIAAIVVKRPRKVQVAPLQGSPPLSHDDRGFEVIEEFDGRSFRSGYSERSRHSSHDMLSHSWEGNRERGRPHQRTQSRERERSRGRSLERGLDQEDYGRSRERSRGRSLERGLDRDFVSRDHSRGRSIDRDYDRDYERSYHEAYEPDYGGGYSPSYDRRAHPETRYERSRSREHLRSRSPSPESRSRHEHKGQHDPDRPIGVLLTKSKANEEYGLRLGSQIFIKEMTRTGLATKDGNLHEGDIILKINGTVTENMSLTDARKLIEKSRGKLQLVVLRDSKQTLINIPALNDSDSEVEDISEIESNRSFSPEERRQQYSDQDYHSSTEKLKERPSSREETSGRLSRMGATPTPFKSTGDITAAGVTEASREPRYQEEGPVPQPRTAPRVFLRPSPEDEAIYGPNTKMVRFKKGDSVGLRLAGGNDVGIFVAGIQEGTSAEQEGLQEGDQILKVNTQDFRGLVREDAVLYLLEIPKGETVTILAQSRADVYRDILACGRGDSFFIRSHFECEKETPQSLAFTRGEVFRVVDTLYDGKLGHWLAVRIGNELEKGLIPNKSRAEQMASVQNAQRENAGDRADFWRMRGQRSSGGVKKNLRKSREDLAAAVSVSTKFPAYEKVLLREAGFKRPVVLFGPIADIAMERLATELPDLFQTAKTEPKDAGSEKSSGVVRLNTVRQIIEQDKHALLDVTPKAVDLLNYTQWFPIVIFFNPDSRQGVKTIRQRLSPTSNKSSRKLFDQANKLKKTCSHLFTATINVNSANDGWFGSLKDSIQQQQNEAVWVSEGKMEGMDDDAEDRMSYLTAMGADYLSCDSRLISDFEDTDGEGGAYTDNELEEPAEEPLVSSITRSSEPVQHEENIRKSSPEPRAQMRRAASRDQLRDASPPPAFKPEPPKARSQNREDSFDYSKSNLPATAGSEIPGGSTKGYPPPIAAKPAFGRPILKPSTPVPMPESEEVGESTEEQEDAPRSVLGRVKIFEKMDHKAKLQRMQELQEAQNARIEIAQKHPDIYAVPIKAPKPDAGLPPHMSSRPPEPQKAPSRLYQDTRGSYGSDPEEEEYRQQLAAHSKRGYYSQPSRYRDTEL

T2: MAGI-3 (UniProt Q9EQJ9)
T2 sequence: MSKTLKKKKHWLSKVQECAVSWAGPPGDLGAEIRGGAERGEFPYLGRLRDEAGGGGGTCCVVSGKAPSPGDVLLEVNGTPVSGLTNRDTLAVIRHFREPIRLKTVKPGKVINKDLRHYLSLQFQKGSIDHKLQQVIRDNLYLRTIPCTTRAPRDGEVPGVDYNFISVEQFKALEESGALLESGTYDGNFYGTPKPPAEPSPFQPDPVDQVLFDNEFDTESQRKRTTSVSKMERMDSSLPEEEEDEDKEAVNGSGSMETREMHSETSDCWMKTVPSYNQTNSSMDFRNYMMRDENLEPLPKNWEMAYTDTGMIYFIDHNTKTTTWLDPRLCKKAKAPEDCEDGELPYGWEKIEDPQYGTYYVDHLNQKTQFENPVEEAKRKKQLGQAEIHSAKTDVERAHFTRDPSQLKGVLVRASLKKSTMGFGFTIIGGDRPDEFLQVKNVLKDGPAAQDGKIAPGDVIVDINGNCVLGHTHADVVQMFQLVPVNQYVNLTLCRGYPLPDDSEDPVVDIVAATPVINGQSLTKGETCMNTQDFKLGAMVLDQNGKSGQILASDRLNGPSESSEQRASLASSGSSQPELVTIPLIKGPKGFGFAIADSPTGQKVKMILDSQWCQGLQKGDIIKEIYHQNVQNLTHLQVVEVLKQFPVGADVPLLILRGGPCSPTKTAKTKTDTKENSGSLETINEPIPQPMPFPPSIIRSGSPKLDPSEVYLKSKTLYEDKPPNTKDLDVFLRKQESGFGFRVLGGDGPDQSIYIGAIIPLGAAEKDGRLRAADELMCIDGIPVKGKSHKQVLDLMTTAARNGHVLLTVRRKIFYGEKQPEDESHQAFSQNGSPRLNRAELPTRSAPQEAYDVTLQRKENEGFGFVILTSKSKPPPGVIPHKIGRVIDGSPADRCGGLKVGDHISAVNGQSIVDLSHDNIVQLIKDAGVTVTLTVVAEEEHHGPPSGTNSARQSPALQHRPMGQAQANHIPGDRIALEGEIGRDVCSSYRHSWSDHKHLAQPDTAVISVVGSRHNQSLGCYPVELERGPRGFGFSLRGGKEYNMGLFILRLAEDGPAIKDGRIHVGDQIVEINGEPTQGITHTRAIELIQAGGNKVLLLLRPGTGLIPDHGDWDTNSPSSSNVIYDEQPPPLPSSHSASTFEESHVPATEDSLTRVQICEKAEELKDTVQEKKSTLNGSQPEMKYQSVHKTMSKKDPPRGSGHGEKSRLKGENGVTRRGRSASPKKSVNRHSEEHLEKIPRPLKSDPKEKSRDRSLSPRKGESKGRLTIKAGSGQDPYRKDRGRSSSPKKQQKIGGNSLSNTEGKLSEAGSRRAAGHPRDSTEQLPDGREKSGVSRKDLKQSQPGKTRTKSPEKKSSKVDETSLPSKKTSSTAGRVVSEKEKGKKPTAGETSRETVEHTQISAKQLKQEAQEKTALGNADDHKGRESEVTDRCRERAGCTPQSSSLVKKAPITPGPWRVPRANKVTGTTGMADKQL

B1: RASSF10, full-length (FL) (protein, UniProt Q8BL43 1-508)
chain: MDPSEKKISVWICQEEKLVSGLSRRTTCSDVVRVLLEDGCRRRCRQRRGQRRGLTEDPSGQLELPEPPDENDEDDDDAMPPGMLCGPPQCYCIVEKWRGFERILPNKTRILRLWTAWGDEQENVRFVLVRSEASLPNAGPRSAEARVVLSRERPCLARGAPARPSLALTQEKQRRVVRKAFRKLAKLNRRRQQQPSSPCSSTSSSTASSCSSSARTHESASVERMETLVHLVLSQDHTIRQQVQRLRELDREIDRYEAKVHLDRMRRHGVNYVQDTYLVGAGIDLDGQTPEGEPEDATLEEKGTEPAAPLDSEAQAAALEELARRCDDLVRLQEERAQQEELLERLSAEIQEELNQRWMQRRNEELAAREESLEPDGGPDGELLLEQERVRTQLSTSLYIGLRLSTDLEAVKADLDYSQQQRDIKERELQGLLQSLHTFEQTVVHDGALGSSGPSREPQPQTCAEMWVDQARGLAKSCPGNDEDSDTGLSSMHSQDSDSVPPVCESLV

Legend:
Test in all cases: co-IP; FLAG immunoprecipitation in a heterologous expression system; anti-DYKDDDDK mAb beads 2 h; 20 mM Tris-HCl pH 7.5, 150 mM NaCl, 1% Triton X-100; blots with anti-FLAG, anti-HA, anti-GFP
ZO-2 = molecular target: T1, ZO-2
afadin = afadin (UniProt Q9QZQ1)
MAGI-3 = molecular target: T2, MAGI-3

Row | Molecule | binding (ZO-2) | binding (afadin) | binding (MAGI-3)
1 | MAGI-1 (from UniProt Q6RHR9 1-1471) | binds | binds | 
2 | B1 |  |  | binds
